Out of some 190,000 compounds screened, about 110 (0.058%) were called active. The inconclusive results got no clear call from the source; some entries with a clear call stand among them for comparison.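 The calls were made as follows: active = fluorescent GTP binding to Rab7 beads changed by at least 20 points from the 100% baseline, either direction, mostly lower; inconclusive = compound itself probably fluorescent, or too few beads counted; inactive = the rest.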
test system: Rab7 GTPase wild type (dog), Bodipy-FL-GTP binding; experiment: modulators of GTP binding to Rab7, primary screen, biochemical, wildtype, multiplex bead flow cytometry (AID 758); conditions: GST-Rab7 beads, fluorescent GTP binding, at 10 µM, actives lie on both sides, untreated = 100%, excess cold GTP = 0%;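 also: median green fluorescence of bound Bodipy-FL-GTP per Rab7 bead population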

Structure (SMILES) | GTP binding activity (percent of control)
Cc1c(Cl)c([N+](=O)[O-])nn1CC(=O)N1CCN(Cc2ccccc2)CC1 | inactive: 96%
CCC(C(=O)NC1CCCC1)N(C(=O)Cn1nnc(-c2ccc(C)o2)n1)c1cnc2ccccc2c1 (centres undefined) | inactive: 101%
COc1cc(/C=C/C(=O)Nc2nc3ccc(S(=O)(=O)NC(C)C)cc3s2)cc(OC)c1OC | inactive: 97%
CCCOc1ccc(CCc2n[nH]c(=S)n2-c2ccccc2)cc1 | inconclusive: 93%
COCCNC(=O)C(=O)c1cc(C)n(-c2ccc([N+](=O)[O-])cc2)c1C | inconclusive: 96%
COc1ccc(/C=N/NC(=O)C(N)=O)c(OC)c1OC | inconclusive: 103%
COc1ccc(Nc2nc(N)nc(CSC(=S)N3CCCCC3)n2)cc1 | inconclusive: 90%
N#Cc1c2c(c(=S)n(-c3ccccc3)c1N)CCCC2 | inconclusive: 91%
COc1ccc(CCNc2nc(=S)[nH]c3cc(OC)c(OC)cc23)cc1OC | active: 74%
Cc1[nH]c2ccccc2c1CCNC(=O)c1ccc2c(c1[N+](=O)[O-])C(=O)c1ccccc1C2=O | inconclusive: 89%
CCCCCC1CCC(C(=O)O)CC1 (centres undefined) | inconclusive: 106%
CN(C)CCN1C(=O)C(O)=C(C(=O)c2cc3ccccc3o2)C1c1ccccn1 (centres undefined) | inconclusive: 93%
COc1cccc2c(=O)c3cccc(N)c3[nH]c12 | inconclusive: 92%
COc1ccc2[nH]c3c(=O)n(Cc4ccc(C(=O)N5CCC(C(N)=O)CC5)cc4)c(=S)[nH]c3c2c1 | inconclusive: 92%
Cc1ccc(Cl)c(OCCCCN(C)Cc2ccccc2)c1 | inconclusive: 101%
COc1ccc(-c2nnc(SCC(=O)c3cccs3)o2)cc1 | active: 59%
COc1ccccc1Nc1nccc(N(C)C)c1C#N | inactive: 96%
CC(=O)Nc1ccc(SCC(=O)Nc2sccc2C#N)cc1 | inconclusive: 95%
Cc1nn(-c2ccccc2)c(C)c1/C=C/C(=O)OCC(=O)N(C)C1CCS(=O)(=O)C1 (centres undefined) | inactive: 93%
CCCCCNC(=O)C1CCC(Cn2c(=S)[nH]c3ccccc3c2=O)CC1 (centres undefined) | inactive: 97%
Cc1cc(C)cc(C(=O)N(NC(=O)Nc2ccc(Cl)cc2)C(C)(C)C)c1 | active: 74%
Cc1ccc(/C=C/c2nc3ccccc3[nH]2)o1 | inconclusive: 95%
Cc1cs/c(=N/C(=S)Nc2ccccc2)n1C | inconclusive: 101%
Cc1ccc(CN2CCN(/N=C/c3cc(Br)cc(Br)c3O)CC2)c(C)c1 | inconclusive: 97%

Structure (SMILES) | GTP binding activity (percent of control)
Cc1ccc(OC(=O)c2cc3ccccc3o2)cc1 | inconclusive: 104%
O=C(NC1CCCC1)C(c1ccncc1)N(Cc1ccccc1)C(=O)Cc1cccs1 (centres undefined) | inconclusive: 102%
O=C(CCNC(=O)c1ccccc1Cl)Nc1ccc(Cl)c(C(F)(F)F)c1 | inactive: 96%
O=C(Nc1ccccc1-c1ccccc1)NC1CC2CCCC(C1)N2Cc1ccc(F)cc1 (centres undefined) | inconclusive: 97%
Cc1ccc(C(=O)NN2C(=O)/C(=C/c3cccn3C)SC2=S)cc1 | inconclusive: 92%
Cn1ncc(C#N)c1/N=C/N(Cc1ccccc1)Cc1ccccc1 | inconclusive: 104%
CC(C)CNC(=O)/C=C/C(=O)O | inactive: 105%
CCc1nc2ccccc2n1Cc1ccccc1F | inactive: 93%
Brc1ccccc1-c1nnc(SCc2nc3ccccc3s2)o1 | inconclusive: 92%
COc1cccc(-c2csc3nnc(SCC(=O)c4ccc(NC(C)=O)cc4)n23)c1 | inconclusive: 103%
Cc1ccc(-c2n[nH]c(=S)c3ccccc23)cc1 | inconclusive: 91%
COc1ccc(-c2cc(=O)c3cc(OC)ccc3[nH]2)cc1 | inconclusive: 120%
Cc1[nH]c2ccccc2c1/C=C(\C#N)C(=O)NC(C)c1ccccc1 (centres undefined) | inconclusive: 92%
CNc1cncc(C(=O)O)c1 | inactive: 98%
CCC1CCCCN1S(=O)(=O)c1ccc(NC(=O)CSc2ncccc2C(=O)O)cc1 (centres undefined) | inconclusive: 83%
O=C(Nc1ccc(N2CCCC2)c(Cl)c1)c1cccs1 | inconclusive: 95%
COc1ccccc1C1/C(=C(/O)c2ccccc2)C(=O)C(=O)N1CCO (centres undefined) | inconclusive: 102%
Cc1ccccc1NC(=O)Nc1nnc(Cc2ccc([N+](=O)[O-])cc2)s1 | inactive: 96%
CCN(CC)C(=O)CSc1nnnn1-c1ccc(F)c(Cl)c1 | inactive: 102%
Cc1ccc(S(=O)(=O)N(C)C)cc1NC(=O)CCNC(=O)c1ccccc1Cl | inactive: 97%
O=C(Nc1ccc2c3c(cccc13)CC2)c1ccco1 | inconclusive: 101%
CC(=O)Nc1cccc(C(=O)/C=C/c2ccco2)c1 | inconclusive: 94%
CC(C)C[C@H](NC(=O)Nc1ccc(S(N)(=O)=O)cc1)C(=O)O | inconclusive: 98%
S=C(Nc1cccc(Cl)c1)N(CCCN1CCCC1)Cc1cccn1Cc1ccc(Cl)cc1 | inconclusive: 103%

Structure (SMILES) | GTP binding activity (percent of control)
Cc1cccc(-n2c(N)c(C(=O)N3CCN(C)CC3)sc2=S)c1 | inconclusive: 94%
CC(=O)Nc1ccc(NC(=O)CSc2nnc3ccc(-c4ccc(F)cc4)nn23)cc1 | inactive: 98%
O=C(Nc1nc(-c2ccc(S(=O)(=O)N3CCCCCC3)cc2)cs1)c1cccs1 | inconclusive: 79%
COc1ccc(OC)c(Nc2nc(-c3sc(N)nc3C)cs2)c1 | inactive: 90%
O=C(CCCSc1nc(-c2ccco2)cc(C(F)(F)F)n1)NCc1cccs1 | inconclusive: 95%
COc1ccc(CN(C(=O)c2cccs2)c2ccccc2)cc1 | inconclusive: 92%
COC(=O)CN1C(=O)S/C(=C/c2ccc(N3CCCCC3)o2)C1=O | inconclusive: 115%
COc1ccccc1NC(=S)N1CC(C)OC(C)C1 (centres undefined) | inactive: 96%
Cc1ccccc1Cn1cnc2c([N+](=O)[O-])c(C)c(C)cc21 | inconclusive: 94%
C=CCN(C(=O)C1=NN(C2CCS(=O)(=O)C2)C(=O)CC1)c1nc(-c2ccc([N+](=O)[O-])cc2)cs1 (centres undefined) | inactive: 93%
N#CCCn1cc(C(=O)N2CCOCC2)c(-c2ccc3c(c2)OCCO3)n1 | inactive: 105%
O=C(NC1CC1)c1cc(F)c(F)cc1Cl | inconclusive: 96%
COc1cccc(/C=N/NC(=O)COc2cccc3cccnc23)c1O | inconclusive: 95%
O=C(CCCO)CCCCCCCCC[C@H]1N[C@H](CO)[C@@H](O)[C@@H]1O | inactive: 99%
Cc1cc(-n2c(=O)c(C#N)cc3c(=O)n4cccc(C)c4nc32)no1 | inconclusive: 101%
O=C(NCc1ccccc1)c1ccccc1C(=O)c1ncc[nH]1 | inactive: 103%
CC(=O)Nc1ccc(OCc2nnc(-c3ccc(Cl)cc3)o2)cc1 | inconclusive: 93%
CC(=O)N1CCN(c2ccc(NC(=O)c3ccc(C)cc3)cc2)CC1 | inconclusive: 100%
NC(=O)c1ccc2nc(NC(=O)c3ccc(N)cc3)sc2c1 | inconclusive: 93%
CCNC(=O)COc1ccc(Br)cc1Cl | inconclusive: 101%
COc1ccc(CCn2c(C)cc(C(=O)CSc3nnnn3-c3ccccc3)c2C)cc1 | inconclusive: 101%
COc1ccc(F)cc1C(=O)C1CCCN(Cc2ccc(Oc3ncccn3)cc2)C1 (centres undefined) | inconclusive: 99%
O=C(NCCNc1ccc([N+](=O)[O-])cc1C(F)(F)F)c1ccc(F)cc1 | inconclusive: 101%
Cc1ccc(NC(=O)c2ccc(Oc3ncccn3)cc2)cc1 | inactive: 97%

A draw from above in order of SMILES length, ascending.
Structure (SMILES) | GTP binding activity (percent of control)
COc1ccccc1NC(=S)N1CC(C)OC(C)C1 (centres undefined) | inactive: 96%
Cc1ccc(NC(=O)c2ccc(Oc3ncccn3)cc2)cc1 | inactive: 97%
COc1cccc(/C=N/NC(=O)COc2cccc3cccnc23)c1O | inconclusive: 95%
Cc1ccccc1Cn1cnc2c([N+](=O)[O-])c(C)c(C)cc21 | inconclusive: 94%

Going on with the list.

Structure (SMILES) | GTP binding activity (percent of control)
CCCCNS(=O)(=O)c1ccc(NC(=O)Cc2ccc(OC)cc2)cc1 | inactive: 93%
C=CCNC(=O)c1ccccc1NC(=O)c1ccccc1SC | inconclusive: 92%
O=c1c2nccnc2[nH]c(=S)n1Cc1ccccc1Cl | inconclusive: 92%
O=C(Nc1nc2ccc(Cl)cc2s1)c1ccc(Br)o1 | inconclusive: 103%
O=[N+]([O-])c1ccc(N2CCN(S(=O)(=O)c3ccccc3)CC2)cc1NCC1CCCO1 (centres undefined) | inconclusive: 102%
CC(=O)c1ccc(NC(=O)C(C)n2nc(-c3ccccc3)c3cc(Cl)ccc32)cc1 (centres undefined) | inactive: 96%
COc1cc(CNC2CCCC2)cc(Cl)c1OCc1ccccc1F | inconclusive: 98%
O=Nc1c(O)[nH]c2ccc(F)cc12 | inactive: 102%
O=C(NCc1ccccc1)c1ccc2c(c1)C(=O)N(Cc1ccncc1)C2=O | inconclusive: 103%
COC(=O)c1sccc1-c1ccc(C(N)=O)o1 | inconclusive: 95%
Cn1cc(C(=O)NC2CCCCC2)c(=O)c2cc(S(=O)(=O)N3CCCC3)ccc21 | inconclusive: 105%
c1ccc(-n2nnnc2Sc2n[nH]c(-c3ccncc3)n2)cc1 | inconclusive: 92%
CC(=O)c1cnc(-c2ccccn2)s1 | inconclusive: 91%
O=C(COc1cc(O)c2c(=O)cc(-c3ccccc3)oc2c1)c1ccc(F)cc1 | inconclusive: 99%
CCOc1cc2c(cc1/C=C1/NC(=O)N(CC(=O)OC)C1=O)OCO2 | inconclusive: 95%
COCCNC(=O)c1cc2c(-c3ccc(Cl)cc3)nn(C)c2s1 | inconclusive: 95%
O=C(COC(=O)c1cncc(Br)c1)Nc1ccc2c(c1)OCO2 | inconclusive: 92%
C/C(=N\NC(=O)c1ccc(Cl)c(S(=O)(=O)Nc2ccccc2Cl)c1)c1ccncc1 | inactive: 91%
CC(=O)OC(C(=O)n1nc(C)cc1C)c1ccccc1 (centres undefined) | inconclusive: 92%
O=C(Nc1nnc(-c2cccs2)o1)c1cc(-c2ccccc2)nc2ccccc12 | inactive: 103%
FC(F)(F)c1ccc(Cl)c(NC(=S)N/N=C/c2ccccc2C(F)(F)F)c1 | inconclusive: 93%
O=C(N/C(=C\c1cccc([N+](=O)[O-])c1)C(=O)N(CCO)CCO)c1ccco1 | inactive: 97%
